At least one structure is not confirmed: it was looked up by name or label, or the drawing left a doubt.
What was measured:
[1] = system: RANKL gene upstream regions D1-D5; experiment: ChIP analysis of transcription factor binding to the RANKL gene in ST2 cells; assay type: cell-based, mouse; conditions: 6 hours
Description: FIG. 4. Confirmation of ChIP/chip data using ChIP. A) Linear arrangement of RANKL locus re-oriented 5′ to 3′ (left to right) indicating the positions of D5 to D1, P2, and P1/TSS. Designation of primer sets used for detection in ChIP is indicated. B) ST2 cells were treated with either vehicle or 1,25(OH)2D3 and then subjected to ChIP using antibodies to VDR, RXR or IgG. Precipitated DNA was evaluated using the primer sets identified in A.
FIG. 5. […] ST2 cells were treated with the above hormones and after 6 hours subjected to ChIP analysis using antibodies to VDR, RXR, GR, C/EBP, β, RNA pol II, and IgG. Precipitated DNA was evaluated for enrichment of the indicated regions of the RANKL gene.
FIG. 10. ChIP analysis of transcription factor binding to RL D5, the TSS and intervening regions of the RANKL locus in response to 1,25(OH)2D3, forskolin and oncostatin M (OSM). ST2 cells were treated for 6 hr with the indicated inducing agents and then subjected to ChIP analysis using antibodies to the indicated factors. Precipitated DNA was analyzed by PCR for enrichment of IS7, D5, IS6 and the TSS of the RANKL gene locus. See text for details of results.
The isolated DNA was then evaluated by PCR using primers as depicted in the diagram seen in FIG. 4a which were designed to amplify small DNA segments within the 5 regions as well as segments located at intervening sites (IS) outside the five regions.
The inventors hypothesized that GC's might perhaps enhance VDR binding to RANKL regulatory regions. […] The inventors focused on the RL-CCL region (D5) and amplified the precipitated DNA using primers to this region of the gene as well as to D4, D3 and TSS and intervening regions. […] The inventors also explored the possibility that C/EBPbeta might similarly participate in the RANKL activation process. C/EBPbeta plays a significant role in the regulation of osteoblastic genes, and is found associated with both 1,25(OH)2D3 and GC target genes.
In addition to 1,25(OH)2D3 and GCs, RANKL expression is also known to be modulated by such factors as PTH, PGE2, the gp130-activating cytokines IL-6 and OSM, as well as IL-1beta and TNFalpha. […] Forskolin was used as substitute for PTH, however, as ST2 cells are deficient in PTH receptor (PTHR). Both PTH/forskolin and PGE2 are known to induce RANKL gene expression via CREB whereas OSM functions via Stat3. […] The inventors therefore explored the possibility that the RL-CCL might represent a focal target for these inducers via either CREB or Stat3 in the RANKL gene locus. ST2 cells were treated with either vehicle, 1,25(OH)2D3, forskolin or OSM for a 6 hour period and then subjected to a ChIP analysis using antibodies to VDR, C/EBPbeta, CREB, phospho-CREB, ATF-2, ATF-4, Stat3, RNA pol II and control IgG. Isolated DNA was then subjected to amplification using primers corresponding to the D5 region (RL-CCL) of the RANKL gene. As controls, the inventors also assessed the extent to which the immunoprecipitations led to the enrichment of DNA at sites surrounding the D5 region of the RANKL gene.

minimal RANKL promoter = experiment: Mouse RANKL minimal promoter (-100 to +65) in pGL3, ST2 cells; assay type: cell-based; conditions: pGL3, without D5 insert
From the text: FIG. 9. The mouse RANKL D5 region is active in the context of the mouse RANKL gene minimal promoter. Mouse RL D5 was inserted upstream of a mouse RANKL gene promoter fragment (−100 to +65) in pGL3 and its inducible activity assessed in ST2 cells. […] Data are the average of triplicate determinations, SEM.
The activity of an enhancer must be evaluated in the context of its local environment, preferentially in the context of both other enhancers and its native promoter. In the case of the RANKL gene, however, this is clearly not possible due to the numbers and the distant locations of the potential regulatory regions. To tackle this problem, the inventors isolated approximately 800 to 1100 bp fragments of each region (D1 to D5) as identified through the ChIP/Chip analysis, cloned each into a luciferase expression vector under the control of a viral thymidine kinase (TK) minimal promoter, and explored the 1,25(OH)2D3- and GC-inducible activity of each following transfection into ST2 cells. […] Nevertheless, positive results provide added support for the potential regulatory capabilities of an individual DNA fragment even when examined in isolation. […] To ensure that the viral TK promoter background was not contributing to our evaluation, the inventors cloned the mouse RANKL promoter (−100 to +65) into pGL3, inserted RL D5 and evaluated its activity in ST2 cells as well.

[2] = system: human D5 region (TK-hRLD5); experiment: TK-hRLD5 luciferase reporter in MG-63 cells; assay type: cell-based; conditions: 24 hours, combination with 1,25(OH)2D3
Description: (§1) FIG. 14. […] Cells were treated with the indicated inducers for the periods identified and isolated RNA subjected to PCR analysis for Cyp24, RANKL and b-actin. […] Two different primer sets to the human D5 region were used to assess VDR binding. […] Luciferase activity was analysed 24 hours later. […] Data are the average of triplicate determinations, SEM.
Approximately 1000 bp of the human RANKL gene comprising D5 was cloned and inserted into a TK-luciferase expression vector (TK-hRLD5). […] The D5 RL region and an additional region immediately upstream in both the mouse and human genes contain elements that mediate the actions of parathyroid hormone, a variety of prostaglandins, cytokines such as oncostatin M and IL-6, as well as IL-1 and others.

RANKL [3] = experiment: RT-PCR of RANKL transcripts in treated ST2 cells; assay type: cell-based, mouse; conditions: for RANKL transcripts: treated up to 24 hours, agent alone, vs beta-actin controls
Description: FIG. 2. Induction of RANKL in ST2 cells by hormones and cytokines. ST2 cells were treated with the agents indicated for periods up to 24 hours. Total RNA was isolated and subjected to RT-PCR using a primer set to mouse RANKL and beta-actin. Positive vitamin D target control genes include Cyp24 and osteopontin (OPN).
The inventors first established a model in which RANKL is both induced in response to 1,25(OH)2D3, PTH (forskolin) and oncostatin M (OSM), and is capable of supporting osteoclast formation when co-cultured with bone marrow monocyte- or spleen cell-derived osteoclast precursors. While a number of cell types express RANKL and induce osteoclastogenesis, the historical literature strongly supports mouse ST2 cells in this capacity, prompting the inventors to focus on this stromal/preosteoblastic line for initial studies. […] Each of these components is known to both induce RANKL expression and promote osteoclast formation as well. […] Indeed, GC effects are widely observed. […] The ability of GCs to enhance osteoclast formation in coculture assays in the presence of 1,25(OH)2D3, however, is likely due also to its coordinate ability to suppress OPG.

[4] = system: mouse D5 region (TK-mRLD5); experiment: TK-mRLD5 luciferase reporter in MG-63 cells; assay type: cell-based; conditions: 24 hours, combination with 1,25(OH)2D3
[5] = system: D5 region of the RANKL gene (RL-CCL); experiment: pTK-RL(D5) luciferase reporter in ST2 cells; assay type: cell-based, mouse; conditions: 24 hours; for luciferase activity via D5 (RL-CCL), TK promoter: agent alone
Description: FIG. 6. Transcriptional activity of the D5 regions of the RANKL gene in the context of the TK promoter. Sequence surrounding the D5 region (1072 bp) was cloned into the pTK-luciferase vector and termed pTK-RL(D5). […] Cells were harvested after 24 hours and luciferase activity assessed. B) ST2 cells were transfected as in A above but without the VDR expression vector and evaluated as in A. C) COS-7 cells were transfected and evaluated as in A above. Luciferase was normalized using beta-gal activity. Data represent the mean of triplicate determinations (SEM). The pTK-luc control vector was unresponsive to any of the inducers (see FIG. 9). *, p<0.05 vs no treatment control.
FIG. 11. […] A) Coordinates of the RL-D5 and the RL-D5b regions in the mouse RANKL upstream region. ST2 cells were transfected with either B) pTK-luc or pTK-mRL-D5 or C) pTK-luc and pTK-mRL-D5b and then treated with the indicated inducers. Cells were harvested after 24 hours and evaluated for luciferase activity. Luciferase was normalized using β-gal activity. Data represent the mean of triplicate determinations (SEM). *, p<0.05 vs no treatment control. **, p<0.05 vs no treatment and 1,25(OH)2D3 treated controls.
The activity of an enhancer must be evaluated in the context of its local environment, preferentially in the context of both other enhancers and its native promoter. In the case of the RANKL gene, however, this is clearly not possible due to the numbers and the distant locations of the potential regulatory regions. […] To ensure that the viral TK promoter background was not contributing to our evaluation, the inventors cloned the mouse RANKL promoter (−100 to +65) into pGL3, inserted RL D5 and evaluated its activity in ST2 cells as well.
Based upon the above data, the inventors explored the possibility that similar to 1,25(OH)2D3, forskolin, PGE2 and OSM might be capable of activating transcription via the D5 fragment of the RANKL gene. […] Cells were harvested 24 hours later and evaluated for luciferase activity as in the previous experiments. […]

RANKL [6] = experiment: RT-PCR of RANKL in MG-63 cells; assay type: cell-based, human
Description: as §1, with “b-actin. B) 1,25(OH)2D3 induces VDR binding to the conserved D5 region of the human RANKL gene in MG-63 cells.” for “b-actin.”, “binding. VDR binding was also observed at D3-D1 but not in intervening regions or at the TSS. C) The human D5 region is transcriptionally active in MG-63 cells.” for “binding.”
The isolated RNA was then subjected to RT-PCR analysis using primers to a control gene (β-actin), a known vitamin D induced gene (Cyp24) and RANKL. […] These and additional data using other hormonal regulators are identical to that observed in mouse cells and it therefore appears likely that human RANKL is regulated in a fashion similar to that in mouse.

mRL-D5b region = experiment: pTK-mRL-D5b luciferase reporter in ST2 cells; assay type: cell-based, mouse; conditions: 24 hours

C[C@@H]1C[C@H]2[C@@H]3CCC4=CC(=O)C=C[C@]4(C)[C@@]3(F)[C@@H](O)C[C@]2(C)[C@@]1(O)C(=O)CO [Dex, dexamethasone]
C/EBPbeta localization to RL-CCL, D4 and D3 [1]: modestly upregulated | GR binding to D5, D4, D3 regions [1]: stimulated the binding of GR | response of minimal RANKL promoter (minimal RANKL promoter): unresponsive | effect on 1,25(OH)2D3-induced activity of human D5 region [2]: synergistically enhances | effect on activity of 1,25(OH)2D3 on RANKL expression (RANKL [3]; together with 1,25(OH)2D3): enhanced | RANKL transcripts (RANKL [3]): little or no effect on RANKL expression alone | effect on 1,25(OH)2D3-induced activity of mouse D5 region [4]: synergistically enhances | luciferase activity via D5 (RL-CCL), TK promoter [5]: only a marginal effect on its own | effect on 1,25(OH)2D3 activity via D5, TK promoter ([5]; in the presence of 1,25(OH)2D3): potentiated | RANKL expression (RT-PCR) (RANKL [6]): upregulated

C=C[C@@]1(C)CC(=O)[C@]2(O)[C@@]3(C)[C@@H](O)CCC(C)(C)[C@@H]3[C@H](O)[C@H](OC(C)=O)[C@@]2(C)O1 [forskolin]
ATF-2 and ATF-4 activation at the D5 region [1]: did not activate either ATF-2 or ATF-4 | CREB binding to the D5 region [1]: stimulated the binding of CREB | CREB phosphorylation (PCREB) at D5 [1]: enhanced level of its phosphorylation | Stat3 binding to the D5 region [1]: not observed | VDR binding to RANKL regulatory regions (D5) ([1]; agent alone): induced a small amount of VDR binding | luciferase response of mRL-D5b region (mRL-D5b region): responsive to forskolin | RANKL transcripts (RANKL [3]): substantial time-dependent increase | luciferase activity via D5 (RL-CCL), TK promoter [5]: but not forskolin

From US20070117182A1, “Nucleic acids conferring transcriptional responsiveness on the RANKL gene promoter and uses thereof” (Wisconsin Alumni Research Foundation, priority 2005, published 2007)
